Results: patent US8450301B2, “Piperazine compounds with a herbicidal action” (BASF SE, priority 2006, dated 2013)
Some results were stated once for a whole list of compounds, not compound by compound.

Tests used:
Format in all cases: in vivo
test plants = assay: greenhouse experiment, post-emergence treatment (species not stated); settings: scale 0 to 100, rate and species not stated
[1] = test system: Chenopodium album (CHEAL); assay: greenhouse experiment, post-emergence treatment; settings: application rate 1 kg/ha, scale 0 to 100
[2] = test system: Amaranthus retroflexus (AMARE); assay: greenhouse experiment, post-emergence treatment; settings: application rate 1 kg/ha, scale 0 to 100
Setaria viridis (SETVI) = assay: greenhouse experiment, post-emergence treatment; settings: application rate 1 kg/ha, scale 0 to 100
[3] = test system: Echinochloa crus galli (ECHCG); assay: greenhouse experiment, post-emergence treatment; settings: scale 0 to 100
[4] = test system: Apera spica-venti (APESV); assay: greenhouse experiment, pre-emergence treatment; settings: application rate 1 kg/ha, scale 0 to 100
Description: The culture containers used were plastic flowerpots containing loamy sand with approximately 3.0% of humus as the substrate. The seeds of the test plants were sown separately for each species.
For the pre-emergence treatment, the active ingredients, which had been suspended or emulsified in water, were applied directly after sowing by means of finely distributing nozzles. The containers were irrigated gently to promote germination and growth and subsequently covered with transparent plastic hoods until the plants had rooted. This cover caused uniform germination of the test plants, unless this has been impaired by the active ingredients.
Depending on the species, the plants were kept at 10-25° C. or 20-35° C. The test period extended over 2 to 4 weeks. During this time, the plants were tended, and their response to the individual treatments was evaluated.
Evaluation was carried out using a scale from 0 to 100. 100 means no emergence of the plants, or complete destruction of at least the aerial moieties, and 0 means no damage, or normal course of growth. A good herbicidal activity is given at values of at least 70 and a very good herbicidal activity is given at values of at least 85.

[5] = test system: Lolium multiflorum (LOLMU); assay: greenhouse experiment, post-emergence treatment; settings: application rate 1 kg/ha, scale 0 to 100

Row | SMILES | herbicidal activity when applied by the post-emergence method (test plants) | herbicidal post-emergence activity against CHEAL [1] | herbicidal post-emergence activity against AMARE [2] | herbicidal post-emergence activity against SETVI (Setaria viridis (SETVI)) | herbicidal post-emergence activity against ECHCG ([3]; application rate 1 kg/ha) | herbicidal pre-emergence activity against APESV [4] | herbicidal post-emergence activity against LOLMU [5] | herbicidal post-emergence activity against ECHCG ([3]; application rate 3 kg/ha)
1 | CN1C(=O)C(Cc2ccc(Cl)cc2[N+](=O)[O-])N(C)C(=O)C1Cc1ccccc1 (single isomer, unassigned) [A.1.10] | very good (a very good herbicidal activity is given at values of at least 85) | very good (a very good herbicidal activity is given at values of at least 85) | very good (a very good herbicidal activity is given at values of at least 85) | very good (a very good herbicidal activity is given at values of at least 85) |  |  |  | 
2 | CCOC(=O)c1ccccc1CC1C(=O)N(C)C(Cc2ccccc2)C(=O)N1C (single isomer, unassigned) [A.2.223] | very good (a very good herbicidal activity is given at values of at least 85) | very good (a very good herbicidal activity is given at values of at least 85) | very good (a very good herbicidal activity is given at values of at least 85) | very good (a very good herbicidal activity is given at values of at least 85) |  |  |  | 
3 | CN1C(=O)C(C(OS(C)(=O)=O)c2ccccc2[N+](=O)[O-])N(C)C(=O)C1Cc1ccccc1 (single isomer, unassigned) [A.2.267] | very good (a very good herbicidal activity is given at values of at least 85) |  | very good (a very good herbicidal activity is given at values of at least 85) |  | very good (a very good herbicidal activity is given at values of at least 85) | very good (a very good herbicidal activity is given at values of at least 85) |  | 
4 | C#Cc1ccccc1CC1C(=O)N(C)C(Cc2ccccc2)C(=O)N1C (stereo not shown) [A.2.135] | very good (a very good herbicidal activity is given at values of at least 85) | very good (a very good herbicidal activity is given at values of at least 85) | very good (a very good herbicidal activity is given at values of at least 85) |  |  |  |  | 
5 | CN1C(=O)C(Cc2c(Br)cccc2[N+](=O)[O-])N(C)C(=O)C1Cc1ccccc1 (stereo not shown) [A.2.136] | very good (a very good herbicidal activity is given at values of at least 85) |  |  | very good (a very good herbicidal activity is given at values of at least 85) |  | very good (a very good herbicidal activity is given at values of at least 85) | very good (a very good herbicidal activity is given at values of at least 85) | 
6 | CN1C(=O)C(Cc2cc(Cl)ccc2[N+](=O)[O-])N(C)C(=O)C1Cc1ccccc1 (stereo not shown) [A.2.226] | very good (a very good herbicidal activity is given at values of at least 85) |  |  |  | very good (a very good herbicidal activity is given at values of at least 85) |  |  | 
7 | CN1C(=O)C(Cc2ccc(F)cc2[N+](=O)[O-])N(C)C(=O)C1Cc1ccccc1 (single isomer, unassigned) [A.1.11] | very good (a very good herbicidal activity is given at values of at least 85) | very good (a very good herbicidal activity is given at values of at least 85) | very good (a very good herbicidal activity is given at values of at least 85) | very good (a very good herbicidal activity is given at values of at least 85) |  |  |  | 
8 | CN1C(=O)C(Cc2cc(Cl)ccc2[N+](=O)[O-])N(C)C(=O)C1Cc1ccccc1 (stereo not shown) [A.2.222] |  | very good (a very good herbicidal activity is given at values of at least 85) | very good (a very good herbicidal activity is given at values of at least 85) | very good (a very good herbicidal activity is given at values of at least 85) |  |  |  | 
9 | CN1C(=O)C(Cc2ccccc2I)N(C)C(=O)C1Cc1ccccc1 (stereo not shown) [A.2.97] | very good (a very good herbicidal activity is given at values of at least 85) |  |  | very good (a very good herbicidal activity is given at values of at least 85) |  | very good (a very good herbicidal activity is given at values of at least 85) | very good (a very good herbicidal activity is given at values of at least 85) | 
10 | CN1C(=O)C(Cc2ccccc2C#N)N(C)C(=O)C1Cc1ccccc1 (stereo not shown) [A.2.81] | very good (a very good herbicidal activity is given at values of at least 85) |  |  |  |  |  |  | very good (a very good herbicidal activity is given at values of at least 85)
